# Reference: PubChem BioAssay AID2685 (National Center for Advancing Translational Sciences (NCATS), 2010)
# Some of the results follow. The main result of the screen is listed elsewhere. These columns were measured beside it and carry no call. The list favours compounds with an active or inconclusive main result. The note in brackets gives the kind of curve behind each potency; many fits are weak.
# Assay: qHTS Assay for Lipid Storage Modulators in Drosophila S3 Cells;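 as to cell number change: cells counted by Cell Tracker Red CMTPX staining in the red channel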
# Details: BODIPY lipid droplet fluorescence, 18-24 h; for cell number change: measured here: cell count max response, cells fed with added oleic acid
# Summary of the method: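 Laser-scanning cytometry quantifies lipid droplet accumulation (500–530 nm total intensity; droplet/cell object ratio) in oleic acid-fed (400 uM added) Drosophila S3 cells treated with a concentration series. 20 uM Triacsin C defined 100% inhibition.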
# [1] = measured here: cell number channel AC50, cells fed with added oleic acid
# [2] = measured here: lipid fluorescence (Fed channel) AC50, cells fed with added oleic acid
SMILES,cell number change [%],AC50 [1],AC50 [2]
FC(F)(F)c1ccccc1-n1c(-c2ccco2)n[nH]c1=S,31.2,"6.51 µM [rising, partial curve, poor fit]",
CCOc1ccc(C(=O)NN2C(=O)C3C4C=CC(O4)C3C2=O)cc1 (stereo unspecified),159,"6.51 µM [falling, single point]",
Cc1cccc(NC(=O)CSc2nnc(C)n2Cc2ccccc2)c1,91.3,"2.31 µM [rising, full curve]","2.06 µM [rising, partial curve]"
Cc1cccc(C)c1NC1=NC(=S)N(c2ccccc2)C12CCOC(C)(C)C2 (stereo unspecified),-27.4,,"0.92 µM [falling, full curve, poor fit]"
CCOc1ccc(N(CC(=O)Nc2cccc(OC)c2)S(C)(=O)=O)cc1,-15.2,,"0.184 µM [rising, full curve, poor fit]"
CCOc1ccc(NS(=O)(=O)c2c(C)nc3sc(CC)nn3c2=O)cc1,-9.88,,"2.91 µM [falling, full curve, poor fit]"
O=C(CSc1ncn[nH]1)NCCCc1ccccc1,12,,"6.51 µM [rising, single point]"
O=C(NCc1cccnc1)/C(=C/c1ccccc1)NC(=O)c1ccccc1,18,,
CC(NC(=O)C1CCCN1C(=O)OCc1ccccc1)c1ccccc1 (stereo unspecified),-31.5,"32.6 µM [falling, single point]",
CCc1ccc(NC(=O)COC(=O)CN2C(=O)COc3ccccc32)cc1,,,"6.51 µM [falling, single point]"
CN(CC(=O)Nc1cccc(F)c1)C(=O)c1cc2c(s1)CCCCC2,101,"13 µM [rising, partial curve]",
CSc1ccc(/C=C(\C#N)C(=O)Nc2cccc(C)c2)cc1,-45.2,"18.4 µM [falling, single point]","16.4 µM [falling, single point]"
COc1ccccc1/C=C/c1ccc2cccc(O)c2n1,-3.55,,
COC(=O)c1cscc1NC(C)=O,-6.02,,"10.3 µM [rising, single point]"
O=c1oc2ccccc2c2[nH]ccc12,134,,
O=C(CCCn1c(=O)[nH]c2cc(Cl)ccc2c1=O)N1CCN(c2ccc([N+](=O)[O-])cc2)CC1,13.1,,"20.6 µM [rising, single point]"
Cc1cccc(NC(=O)c2cccc(C(=O)Nc3cccc(C)c3C)n2)c1C,6.74,,"29.1 µM [rising, single point]"
CCc1cccc(CC)c1NC(=O)CSc1nnc(C2CC2)n1N,23,,
CN(C)c1ccnc2sc3c(=O)n(-c4ccccc4)cnc3c12,-9.91,,
O=C(Nc1nc2cc(Cl)ccc2s1)C1CCCN(S(=O)(=O)c2cccc3cccnc23)C1 (stereo unspecified),2.36,,
CCn1c(SCC(=O)Nc2ccccc2N2CCCCC2)nc2c1c(=O)n(C)c(=O)n2C,,,"1.3 µM [rising, full curve]"

SMILES,cell number change [%],AC50 [1],AC50 [2]
Cc1cccc(-c2nc(Nc3ccc(O)cc3)c3ccccc3n2)c1,-42.2,"18.4 µM [falling, single point]","16.4 µM [falling, single point]"
CCOC(=O)C1CCN(C(=O)C2CCC(=O)N(Cc3cccc(C(F)(F)F)c3)C2)CC1 (stereo unspecified),27,"0.103 µM [rising, full curve, poor fit]","0.103 µM [rising, full curve, poor fit]"
O=C(Cn1c(=O)oc2cc(S(=O)(=O)N3CCCC3)ccc21)NCc1ccccn1,,,"25.9 µM [falling, partial curve]"
O=C(CCCN1CCC(NC(=O)c2ccccc2)CC1)c1ccc(Cl)cc1,10.6,,"0.103 µM [rising, full curve, poor fit]"
CCCn1c(-c2cccnc2Cl)nc2cc(Cl)c(Cl)cc21,,"0.58 µM [rising, partial curve]",
CS(=O)(=O)N(CC(=O)NCCSc1ccccn1)c1cccc2ccccc12,-5.43,,"4.61 µM [falling, single point]"
O=[N+]([O-])c1ccccc1CNC1CCCc2ccccc21 (stereo unspecified),27.9,,"5.8 µM [rising, full curve, poor fit]"
CCOC(=O)COc1ccc2c(c1)C(=O)CC1(CCCCC1)O2,2.8,,"0.82 µM [falling, full curve]"
CCN(CC)S(=O)(=O)c1cccc(-c2n[nH]c(=S)n2/N=C/c2ccc(OC)cc2)c1,-50,"0.0058 µM [falling, full curve, poor fit]","29.1 µM [rising, single point]"
C/C(=N\O)C(C)(C)Nc1ccc(Br)cc1,18.1,,
CCOc1ccc(NC(=O)N(CCN(C)C)C(C)c2ccncc2)cc1 (stereo unspecified),19.1,,
O=C(Nc1ccccn1)NC1CCS(=O)(=O)C1 (stereo unspecified),-23.3,"3.66 µM [falling, partial curve]","2.91 µM [falling, partial curve]"
Cc1cc(C(=O)Nc2ccccc2C(=O)O)c(C)o1,44.9,,
CCOc1ccc(OCc2ccc(C(=O)N3CCCC3)o2)cc1,71.1,"5.8 µM [rising, full curve]",
COc1ccc(CC(=O)NC2CCSc3ccccc32)cc1OC (stereo unspecified),,"0.00411 µM [falling, full curve, poor fit]",
CC(C)c1ccc(NC2CCCN(C(=O)CN3CCOC3=O)C2)cc1 (stereo unspecified),41.6,"32.6 µM [rising, single point]","14.6 µM [rising, partial curve, poor fit]"
O=C1/C(=C/c2ccc(F)cc2)SC(=S)N1Nc1ncc(C(F)(F)F)cc1Cl,-36.2,"29.1 µM [falling, single point]","20.6 µM [falling, single point]"
COC(=O)c1ccc(COc2cc(C)ccc2C)o1,45.4,"1.3 µM [rising, full curve]",
S=C(NCc1cccs1)Nc1ccc(Br)cc1Cl,-32.5,,"3.66 µM [falling, single point]"
Cc1cc(OCc2cc(C(=O)NC3CCC3)no2)cc(C)c1Cl,16.4,,
CCc1ccc(NC(=O)c2cnn3ccccc23)cc1,-16,,

SMILES,cell number change [%],AC50 [1],AC50 [2]
CCc1cccc(NC(=O)c2snc3c(=O)[nH]cnc23)c1,26.6,"4.11 µM [rising, full curve, poor fit]","0.461 µM [rising, single point]"
O=C(CS(=O)(=O)c1cn(CC(=O)N2CCCC2)c2ccccc12)Nc1ccccc1F,-18.8,"0.366 µM [rising, full curve]","29.1 µM [rising, single point]"
CCOc1ccc(N(CC(=O)OC)S(=O)(=O)c2ccc3c(c2)n(C)c(=O)c(=O)n3C)cc1,-0.844,"0.651 µM [rising, full curve, poor fit]",
OCC[C@H]1C[C@@H](O)[C@H](O)[C@@]2(CCCc3ccccc3O2)O1,-10.3,,"0.013 µM [rising, full curve, poor fit]"
Cc1cc(C)c(NC(=O)c2cccs2)c(C)c1NC(=O)c1cccs1,-38.1,"11.6 µM [falling, partial curve, poor fit]","2.31 µM [falling, partial curve]"
COC(=O)C(CCSC)NC(=O)CNS(=O)(=O)c1ccc(F)cc1 (stereo unspecified),17.7,,"0.206 µM [rising, full curve, poor fit]"
CC(=O)Nc1ccc(NC(=O)C(NS(=O)(=O)c2ccc3c(c2)OCCO3)C(C)C)cc1 (stereo unspecified),-2.57,,"1.64 µM [falling, single point]"
O=C(C1CCOCC1)N1CCCC(N2CCN(c3cccc(Cl)c3)CC2)C1 (stereo unspecified),-2.36,,"29.1 µM [rising, single point]"
CCN(CC)CCNC(=O)c1ccc(NC(=O)C2CC(=O)N(CCc3ccc(OC)c(OC)c3)C2)cc1 (stereo unspecified),-3.5,,"13 µM [falling, single point]"
O=C(NCCCN1CCCCC1)c1ccc2c(c1)ncn2C1CCCC1,11.1,,"29.1 µM [rising, single point]"
CC(=O)Nc1ccc(NCc2cccs2)cc1,-7.42,,
CC(=O)c1ccc(N2CCN(CC(=O)NCc3ccccc3)CC2)cc1,28,,"29.1 µM [rising, single point]"
CC1(C)OC(=O)C(=Cc2ccc(-c3ccc(Cl)c(C(=O)O)c3)o2)C(=O)O1,,,"6.51 µM [rising, single point]"
CSC1=NCCN1S(=O)(=O)c1ccc(NC(C)=O)cc1,4.15,,
Cc1ncsc1CCC(=O)N1CCCC(Nc2ccc(C(C)C)cc2)C1 (stereo unspecified),24,"2.59 µM [rising, full curve, poor fit]","2.91 µM [rising, full curve]"
COCCn1cnnc1SCC(=O)Nc1cccc(S(=O)(=O)N2CCCCCC2)c1,4.83,,"29.1 µM [falling, single point]"
O=C(COc1ccc2c(c1)oc(=O)c1ccccc12)N[C@@H](Cc1ccccc1)C(=O)O,23.3,"0.146 µM [rising, full curve, poor fit]","29.1 µM [rising, single point]"
O=C(CCS(=O)(=O)c1ccc(Br)cc1)NCCc1ccc(Cl)cc1,12.4,,"0.146 µM [rising, full curve, poor fit]"
Cc1ccc(S(=O)(=O)NCC(=O)N(CC(=O)NCC2CCCO2)C2CCCC2)cc1 (stereo unspecified),65.1,"20.6 µM [rising, single point]",

# Reformatted: results already given.
SMILES	cell number change [%]	AC50 [1]	AC50 [2]
CCc1cccc(NC(=O)c2snc3c(=O)[nH]cnc23)c1	26.6	4.11 µM [rising, full curve, poor fit]	0.461 µM [rising, single point]
O=C(CS(=O)(=O)c1cn(CC(=O)N2CCCC2)c2ccccc12)Nc1ccccc1F	-18.8	0.366 µM [rising, full curve]	29.1 µM [rising, single point]
CCOc1ccc(N(CC(=O)OC)S(=O)(=O)c2ccc3c(c2)n(C)c(=O)c(=O)n3C)cc1	-0.844	0.651 µM [rising, full curve, poor fit]	
OCC[C@H]1C[C@@H](O)[C@H](O)[C@@]2(CCCc3ccccc3O2)O1	-10.3		0.013 µM [rising, full curve, poor fit]
Cc1cc(C)c(NC(=O)c2cccs2)c(C)c1NC(=O)c1cccs1	-38.1	11.6 µM [falling, partial curve, poor fit]	2.31 µM [falling, partial curve]
COC(=O)C(CCSC)NC(=O)CNS(=O)(=O)c1ccc(F)cc1 (stereo unspecified)	17.7		0.206 µM [rising, full curve, poor fit]
CC(=O)Nc1ccc(NC(=O)C(NS(=O)(=O)c2ccc3c(c2)OCCO3)C(C)C)cc1 (stereo unspecified)	-2.57		1.64 µM [falling, single point]
O=C(C1CCOCC1)N1CCCC(N2CCN(c3cccc(Cl)c3)CC2)C1 (stereo unspecified)	-2.36		29.1 µM [rising, single point]
CCN(CC)CCNC(=O)c1ccc(NC(=O)C2CC(=O)N(CCc3ccc(OC)c(OC)c3)C2)cc1 (stereo unspecified)	-3.5		13 µM [falling, single point]
O=C(NCCCN1CCCCC1)c1ccc2c(c1)ncn2C1CCCC1	11.1		29.1 µM [rising, single point]
CC(=O)Nc1ccc(NCc2cccs2)cc1	-7.42		
CC(=O)c1ccc(N2CCN(CC(=O)NCc3ccccc3)CC2)cc1	28		29.1 µM [rising, single point]
CC1(C)OC(=O)C(=Cc2ccc(-c3ccc(Cl)c(C(=O)O)c3)o2)C(=O)O1			6.51 µM [rising, single point]
CSC1=NCCN1S(=O)(=O)c1ccc(NC(C)=O)cc1	4.15		
Cc1ncsc1CCC(=O)N1CCCC(Nc2ccc(C(C)C)cc2)C1 (stereo unspecified)	24	2.59 µM [rising, full curve, poor fit]	2.91 µM [rising, full curve]
